According to paper PMC10576769 (Nature Communications, 2023):
Results are given in words; binding and its absence hold for the method and conditions named.

The chains behind the UniProt entries cited, without tags or fusion partners. Residues count along the entry.
UniProt Q0TV31, residues 29-398: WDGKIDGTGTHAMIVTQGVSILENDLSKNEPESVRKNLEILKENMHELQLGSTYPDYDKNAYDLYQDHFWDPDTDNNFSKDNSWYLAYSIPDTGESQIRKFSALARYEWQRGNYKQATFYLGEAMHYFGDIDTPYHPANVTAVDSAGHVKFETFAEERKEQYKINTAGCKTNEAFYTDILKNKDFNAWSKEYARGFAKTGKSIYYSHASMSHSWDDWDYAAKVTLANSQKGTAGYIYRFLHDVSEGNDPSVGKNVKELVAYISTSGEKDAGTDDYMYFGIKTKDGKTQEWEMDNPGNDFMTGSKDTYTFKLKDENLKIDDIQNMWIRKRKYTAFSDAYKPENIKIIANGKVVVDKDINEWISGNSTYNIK

Columns and labels:
[1] = target: phospholipase C from Clostridium perfringens (CpPC-PLC), wild type, mature (Clostridium perfringens) (UniProt Q0TV31); assay: native gel or EMSA; both purified
[2] = target: phospholipase C from Clostridium perfringens (CpPC-PLC), wild type, mature (Clostridium perfringens) (UniProt Q0TV31); assay: SEC; both purified

In the case of “phospholipase C from Clostridium perfringens (CpPC-PLC), wild type, mature (from UniProt Q0TV31 29-398) (enzyme)”, the binding [1] was “no binding” and the binding [2] was “no binding”.
